Assay results as given in patent US20040175720A1 (NEW YORK UNIVERSITY, published 2004).
These are yes or no findings as the source states them, for the method shown. For part of these data: In cells and extracts the contact can be indirect. Some entries that bind do so weakly or less than the wild type. For part of these data: Where a sequence is shown, tags or fusion partners need not be part of it. Blank lines part the entries; values can stand above or below the molecule they belong to.

The chains behind the UniProt entries cited, without tags or fusion partners. Where a name states a change or a piece, a line headed by the entry shows the natural chain unless it says otherwise.
UniProt P0A7C2: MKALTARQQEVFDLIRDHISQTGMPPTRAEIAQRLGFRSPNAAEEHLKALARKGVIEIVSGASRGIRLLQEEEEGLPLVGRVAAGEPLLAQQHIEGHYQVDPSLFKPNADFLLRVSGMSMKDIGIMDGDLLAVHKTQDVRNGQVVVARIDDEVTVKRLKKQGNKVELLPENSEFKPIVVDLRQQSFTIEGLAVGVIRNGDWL
UniProt P04150: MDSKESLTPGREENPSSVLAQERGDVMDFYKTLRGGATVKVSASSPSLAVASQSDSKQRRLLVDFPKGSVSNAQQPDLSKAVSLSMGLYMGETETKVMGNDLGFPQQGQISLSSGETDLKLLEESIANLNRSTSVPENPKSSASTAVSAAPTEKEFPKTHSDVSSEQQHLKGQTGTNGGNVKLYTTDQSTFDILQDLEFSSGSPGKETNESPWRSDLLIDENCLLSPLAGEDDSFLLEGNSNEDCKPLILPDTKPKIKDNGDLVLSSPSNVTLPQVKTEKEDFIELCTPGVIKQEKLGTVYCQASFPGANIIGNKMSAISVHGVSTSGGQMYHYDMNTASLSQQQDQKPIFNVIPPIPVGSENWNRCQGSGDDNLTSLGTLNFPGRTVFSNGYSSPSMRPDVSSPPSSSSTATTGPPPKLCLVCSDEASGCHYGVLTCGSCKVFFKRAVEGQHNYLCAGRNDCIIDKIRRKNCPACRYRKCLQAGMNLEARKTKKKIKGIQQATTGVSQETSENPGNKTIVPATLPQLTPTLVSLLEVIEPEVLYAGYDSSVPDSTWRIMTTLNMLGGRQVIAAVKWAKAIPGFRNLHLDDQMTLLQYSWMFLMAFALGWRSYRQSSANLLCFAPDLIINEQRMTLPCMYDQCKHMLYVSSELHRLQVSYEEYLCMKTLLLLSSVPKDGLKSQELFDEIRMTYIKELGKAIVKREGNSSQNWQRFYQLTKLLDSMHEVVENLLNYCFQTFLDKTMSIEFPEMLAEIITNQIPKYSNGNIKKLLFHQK
UniProt Q07869: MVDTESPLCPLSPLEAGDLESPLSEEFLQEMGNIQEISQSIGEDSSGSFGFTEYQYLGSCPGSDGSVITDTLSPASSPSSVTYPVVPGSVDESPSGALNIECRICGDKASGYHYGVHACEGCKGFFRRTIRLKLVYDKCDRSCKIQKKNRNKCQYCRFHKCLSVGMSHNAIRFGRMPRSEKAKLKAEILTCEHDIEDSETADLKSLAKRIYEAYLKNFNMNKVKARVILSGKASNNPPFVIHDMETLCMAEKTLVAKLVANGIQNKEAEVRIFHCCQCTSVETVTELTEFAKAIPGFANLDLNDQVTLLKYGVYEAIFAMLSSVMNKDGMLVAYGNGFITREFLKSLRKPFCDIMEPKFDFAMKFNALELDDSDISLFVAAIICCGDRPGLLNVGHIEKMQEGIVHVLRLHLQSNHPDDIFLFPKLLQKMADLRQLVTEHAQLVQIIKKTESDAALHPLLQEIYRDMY
UniProt P10276: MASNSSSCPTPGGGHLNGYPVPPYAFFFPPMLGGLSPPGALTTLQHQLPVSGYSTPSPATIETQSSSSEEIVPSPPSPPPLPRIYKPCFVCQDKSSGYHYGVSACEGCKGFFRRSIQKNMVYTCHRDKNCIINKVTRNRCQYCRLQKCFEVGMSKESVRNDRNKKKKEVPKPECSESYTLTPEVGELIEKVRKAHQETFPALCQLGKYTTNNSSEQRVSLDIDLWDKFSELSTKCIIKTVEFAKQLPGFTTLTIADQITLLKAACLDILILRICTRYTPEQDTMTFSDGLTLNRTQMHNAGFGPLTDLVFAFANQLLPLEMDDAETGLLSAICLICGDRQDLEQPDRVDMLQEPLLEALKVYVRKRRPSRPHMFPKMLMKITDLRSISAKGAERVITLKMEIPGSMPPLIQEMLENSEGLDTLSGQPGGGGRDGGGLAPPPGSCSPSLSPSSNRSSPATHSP
UniProt P19793: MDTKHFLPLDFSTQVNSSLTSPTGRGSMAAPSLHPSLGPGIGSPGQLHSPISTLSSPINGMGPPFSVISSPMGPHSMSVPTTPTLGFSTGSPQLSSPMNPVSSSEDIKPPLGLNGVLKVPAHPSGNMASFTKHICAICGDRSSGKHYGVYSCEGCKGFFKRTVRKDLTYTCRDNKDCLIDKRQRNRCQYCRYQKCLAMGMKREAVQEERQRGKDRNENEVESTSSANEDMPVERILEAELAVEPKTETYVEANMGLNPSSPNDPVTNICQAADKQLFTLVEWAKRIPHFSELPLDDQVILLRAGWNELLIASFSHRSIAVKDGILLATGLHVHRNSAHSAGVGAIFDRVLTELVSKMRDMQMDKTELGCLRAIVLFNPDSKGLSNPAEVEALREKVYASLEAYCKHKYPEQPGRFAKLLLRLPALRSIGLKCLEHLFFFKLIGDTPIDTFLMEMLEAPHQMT
UniProt P03372: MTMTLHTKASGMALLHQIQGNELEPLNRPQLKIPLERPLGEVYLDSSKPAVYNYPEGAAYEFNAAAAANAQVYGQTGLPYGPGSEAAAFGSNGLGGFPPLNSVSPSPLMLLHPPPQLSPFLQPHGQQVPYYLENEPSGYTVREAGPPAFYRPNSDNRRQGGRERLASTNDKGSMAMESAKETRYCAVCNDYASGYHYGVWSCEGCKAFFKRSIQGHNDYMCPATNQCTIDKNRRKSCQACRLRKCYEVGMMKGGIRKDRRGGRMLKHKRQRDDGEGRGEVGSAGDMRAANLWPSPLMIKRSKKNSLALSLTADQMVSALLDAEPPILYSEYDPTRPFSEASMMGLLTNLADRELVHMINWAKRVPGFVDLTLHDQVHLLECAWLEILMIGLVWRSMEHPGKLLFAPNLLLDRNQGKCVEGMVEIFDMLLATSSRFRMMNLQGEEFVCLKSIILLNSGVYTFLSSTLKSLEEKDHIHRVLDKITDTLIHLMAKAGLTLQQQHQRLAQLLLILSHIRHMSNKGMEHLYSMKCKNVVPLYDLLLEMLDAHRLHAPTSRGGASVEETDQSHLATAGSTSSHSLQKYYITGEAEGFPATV
UniProt P04625: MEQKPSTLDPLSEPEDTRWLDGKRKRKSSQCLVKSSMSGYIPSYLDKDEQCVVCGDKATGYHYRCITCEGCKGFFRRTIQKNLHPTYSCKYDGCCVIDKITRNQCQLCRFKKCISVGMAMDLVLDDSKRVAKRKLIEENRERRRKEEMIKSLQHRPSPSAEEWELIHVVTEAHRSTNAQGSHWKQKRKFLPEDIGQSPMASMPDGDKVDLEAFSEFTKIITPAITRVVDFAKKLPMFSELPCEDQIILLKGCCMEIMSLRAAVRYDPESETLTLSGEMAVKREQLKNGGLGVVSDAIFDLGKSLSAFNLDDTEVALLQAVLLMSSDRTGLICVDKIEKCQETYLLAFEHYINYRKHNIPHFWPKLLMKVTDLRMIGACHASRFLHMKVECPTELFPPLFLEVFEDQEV
UniProt Q14686: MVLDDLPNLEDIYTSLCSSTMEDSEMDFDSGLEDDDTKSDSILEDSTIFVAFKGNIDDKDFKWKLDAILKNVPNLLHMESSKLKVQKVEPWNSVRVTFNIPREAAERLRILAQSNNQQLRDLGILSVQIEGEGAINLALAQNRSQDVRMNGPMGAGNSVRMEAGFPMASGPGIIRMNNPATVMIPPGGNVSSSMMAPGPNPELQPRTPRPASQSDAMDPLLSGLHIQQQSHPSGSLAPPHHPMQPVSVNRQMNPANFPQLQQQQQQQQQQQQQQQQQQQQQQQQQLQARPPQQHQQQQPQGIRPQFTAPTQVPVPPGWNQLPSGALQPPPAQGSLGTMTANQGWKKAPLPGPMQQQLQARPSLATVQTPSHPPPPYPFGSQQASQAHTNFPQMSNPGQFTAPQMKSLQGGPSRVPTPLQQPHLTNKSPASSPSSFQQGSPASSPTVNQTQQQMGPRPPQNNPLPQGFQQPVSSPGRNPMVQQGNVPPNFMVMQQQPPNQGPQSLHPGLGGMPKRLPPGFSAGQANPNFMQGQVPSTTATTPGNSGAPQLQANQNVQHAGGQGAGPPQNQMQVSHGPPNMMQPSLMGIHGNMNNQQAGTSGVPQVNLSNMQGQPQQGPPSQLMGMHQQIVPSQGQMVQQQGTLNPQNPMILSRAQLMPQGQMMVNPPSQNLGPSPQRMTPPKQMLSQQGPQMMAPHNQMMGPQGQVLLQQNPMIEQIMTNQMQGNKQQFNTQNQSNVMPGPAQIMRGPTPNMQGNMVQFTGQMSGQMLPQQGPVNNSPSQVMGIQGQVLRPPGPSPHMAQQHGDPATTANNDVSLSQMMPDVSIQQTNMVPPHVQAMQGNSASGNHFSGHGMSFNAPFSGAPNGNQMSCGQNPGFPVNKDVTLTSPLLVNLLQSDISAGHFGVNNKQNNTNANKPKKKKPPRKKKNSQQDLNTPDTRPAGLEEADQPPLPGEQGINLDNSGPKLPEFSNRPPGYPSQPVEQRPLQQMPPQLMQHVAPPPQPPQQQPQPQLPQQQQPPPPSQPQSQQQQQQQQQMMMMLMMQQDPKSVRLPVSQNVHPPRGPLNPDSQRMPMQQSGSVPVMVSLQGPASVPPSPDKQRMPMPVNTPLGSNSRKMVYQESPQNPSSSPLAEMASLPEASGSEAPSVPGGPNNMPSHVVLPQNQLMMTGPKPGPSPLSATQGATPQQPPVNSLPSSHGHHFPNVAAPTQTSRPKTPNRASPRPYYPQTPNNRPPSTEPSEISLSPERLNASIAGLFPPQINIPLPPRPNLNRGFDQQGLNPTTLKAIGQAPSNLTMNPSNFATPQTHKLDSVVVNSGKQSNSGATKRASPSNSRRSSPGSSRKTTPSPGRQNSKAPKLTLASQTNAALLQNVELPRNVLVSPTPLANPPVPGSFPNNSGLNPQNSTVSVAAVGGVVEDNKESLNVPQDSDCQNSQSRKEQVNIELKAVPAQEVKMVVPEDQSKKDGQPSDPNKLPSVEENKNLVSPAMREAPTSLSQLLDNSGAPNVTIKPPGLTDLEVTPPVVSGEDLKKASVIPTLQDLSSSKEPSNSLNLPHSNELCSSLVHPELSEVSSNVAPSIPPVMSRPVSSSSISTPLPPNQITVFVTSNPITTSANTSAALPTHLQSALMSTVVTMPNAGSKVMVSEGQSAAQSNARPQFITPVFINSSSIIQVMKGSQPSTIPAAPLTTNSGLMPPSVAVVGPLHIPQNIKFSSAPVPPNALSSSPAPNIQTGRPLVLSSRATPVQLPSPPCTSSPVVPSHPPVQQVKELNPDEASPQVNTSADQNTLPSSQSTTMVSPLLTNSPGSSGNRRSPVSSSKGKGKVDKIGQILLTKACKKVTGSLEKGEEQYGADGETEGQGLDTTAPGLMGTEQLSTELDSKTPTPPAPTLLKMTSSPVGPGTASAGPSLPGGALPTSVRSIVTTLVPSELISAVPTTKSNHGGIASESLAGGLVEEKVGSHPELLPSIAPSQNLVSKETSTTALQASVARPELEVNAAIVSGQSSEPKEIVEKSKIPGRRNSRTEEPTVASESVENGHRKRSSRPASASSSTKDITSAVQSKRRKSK
UniProt Q9JLI4: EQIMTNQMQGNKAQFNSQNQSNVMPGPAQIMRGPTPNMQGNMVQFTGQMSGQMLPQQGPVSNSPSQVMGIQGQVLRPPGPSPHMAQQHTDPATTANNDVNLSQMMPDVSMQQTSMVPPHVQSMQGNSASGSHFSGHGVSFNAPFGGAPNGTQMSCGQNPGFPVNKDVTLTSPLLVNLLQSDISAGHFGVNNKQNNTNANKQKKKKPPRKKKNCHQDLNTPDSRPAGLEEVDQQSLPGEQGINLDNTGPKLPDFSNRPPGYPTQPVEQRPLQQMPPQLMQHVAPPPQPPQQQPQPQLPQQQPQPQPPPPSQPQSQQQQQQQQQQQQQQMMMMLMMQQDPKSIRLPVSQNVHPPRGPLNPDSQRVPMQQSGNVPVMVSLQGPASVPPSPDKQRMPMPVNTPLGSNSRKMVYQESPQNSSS

What was measured:
[1] = target: LexA-hGR LBD (LexA fusion of the ligand binding domain of hGR) (human) (UniProt P0A7C2+P04150); experiment: yeast two-hybrid with cognate ligand
[2] = target: LexA-hPPARα LBD (LexA fusion of the ligand binding domain of hPPARα) (human) (UniProt P0A7C2+Q07869); experiment: yeast two-hybrid with cognate ligand
[3] = target: LexA-hRARα LBD (LexA fusion of the ligand binding domain of hRARα) (human) (UniProt P0A7C2+P10276); experiment: yeast two-hybrid with cognate ligand
[4] = target: LexA-hRXRα LBD (LexA fusion of the ligand binding domain of hRXRα) (human) (UniProt P0A7C2+P19793); experiment: yeast two-hybrid with cognate ligand
[5] = target: LexA-human ERα-LBD (LexA fusion of the ligand binding domain of hERα) (human) (UniProt P0A7C2+P03372); experiment: yeast two-hybrid with cognate ligand
[6] = target: T1, LexA-cTRα LBD (LexA fusion of the ligand binding domain of cTRα) (chicken) (UniProt P0A7C2+P04625); experiment: yeast two-hybrid with T3, β-galactosidase
[7] = target: T1, LexA-cTRα LBD (LexA fusion of the ligand binding domain of cTRα) (chicken); experiment: yeast two-hybrid with T3, β-galactosidase (FIG. 7)
[8] = target: GST-NRC (GST fusion of full length NRC expressed from pEBG-NRC in 293T cells) (UniProt Q14686); experiment: co-expression in 293T cells, glutathione-agarose pull-down, anti-Flag M2 Western blot
[9] = target: GST-NRC (GST fusion of full length NRC expressed from pEBG-NRC in 293T cells) (UniProt Q14686); experiment: co-expression in 293T cells, glutathione-agarose pull-down, anti-Flag M2 Western blot (FIG. 4)
[10] = target: LexA-NRC.1 wt (rat NRC.1, wild-type LxxLL-1 motif) (rat) (UniProt P0A7C2+Q9JLI4); experiment: yeast two-hybrid, LexA-NRC constructs with wild-type or mutated LxxLL-1
[11] = target: LexA-NRC.1a wt (rat NRC.1a, amino acids 849-995, wild-type LxxLL-1 motif LVNLL) (rat) (UniProt P0A7C2+Q9JLI4); experiment: as above
[12] = target: LexA-NRC (LexA fusion of NRC; limits of the construct not given) (UniProt P0A7C2); experiment: yeast two-hybrid, B42-NIF-1 (full-length) against LexA-NRC, β-galactosidase
[13] = target: LexA-NRC (LexA fusion of NRC; limits of the construct not given) (UniProt P0A7C2); experiment: yeast two-hybrid, B42-NIF constructs against LexA-NRC fusions (FIG. 5)
[14] = target: LexA-NRC-b (LexA DBD fused to NRC amino acids 849-2063), bait of the two-hybrid screen (UniProt P0A7C2); experiment: yeast two-hybrid screen, LexA-NRC(849-2063) bait against the B42 GH4C1 cDNA library
[15] = target: LexA-NRC (LexA fusion of NRC; limits of the construct not given) (UniProt P0A7C2); experiment: yeast two-hybrid

Molecule: B42-NRC (B42 activation domain fusion of NRC) (from UniProt Q14686 1-2063)
- binding [1]: binds
- binding [2]: binds
- binding [3]: binds
- binding [4]: binds
- binding [5]: binds
- binding [6]: binds
- binding [7]: binds

B1: Flag-tagged NIF-1 (full-length human NIF-1 with a Flag-tag, expressed from pEX-FlagNIF-1) (protein, not shown: small tags and cut ends)
chain: MEENEVESSSDAAPGPGRPEEPSESGLGVGTSEAVSADSSDAAAAPGQAEADDSGVGQSSDRGSRSQEEVSESSSSADPLPNSYLPDSSSVSHGPVAGVTGGPPALVHSSALPDPNMLVSDCTASSSDLGSAIDKIIESTIGPDLIQNCITVTSAEDGGAETTRYLILQGPDDGAPMTSPMSSSTLAHSLAAIEALADGPTSTSTCLEAQGGPSSPVQLPPASGAEEPDLQSLEAMMEVVVVQQFKCKMCQYRSSTKATLLRHMRERHFRPVAAAAAAAGKKGRLRKWSTSTKSQEEEGPEEEDDDDIVDAGAIDDLEEDSDYNPAEDEPRGRQLRLQRPTPSTPRPRRRPGRPRKLPRLEISDLPDGVEGEPLVSSQSGQSPPEPQDPEAPSSSGPGHLVAMGKVSRTPVEAGVSQSDAENAAPSCPDEHDTLPRRRGRPSRRFLGKKYRKYYYKSPKPLLRPFLCRICGSRFLSHEDLRFHVNSHEAGDPQLFKCLQCSYRSRRWSSLKEHMFNHVGSKPYKCDECSYTSVYRKDVIRHAAVHSRDRKKRPDPTPKLSSFPCPVCGRVYPMQKRLTQHMKTHSTEKPHMCDKCGKSFKKRYTFKMHLLTHIQAVANRRFKCEFCEFVCEDKKALLNHQLSHVSDKPFKCSFCPYRTFREDFLLSHVAVKHTGAKPFACEYCHFSTRHKKNLRLHVRCRHASSFEEWGRRHPEEPPSRRRPFFSLQQIEELKQQHSAAPGPPPSSPGPPEIPPEATTFQSSEAPSLLCSDTLGGATIIYQQGAEESTAMATQTALDLLLNMSAQRELGGTALQVAVVKSEDVEAGLASPGGQPSPEGATPQVVTLHVAEPGGGAAAESQLGPPDLPQITLAPGPFGGTGYSVITAPPMEEGTSAPGTPYSEEPAGEAAQAVVVSDTLKEAGTHYIMATDGTQLHHIELTADGSISFPSPDALASGAKWPLLQCGGLPRDGPEPPSPAKTHCVGDSQSSASSPPATSKALGLAVPPSPPSAATAASKKFSCKICAEAFPGRAEMESHKRAHAGPGAFKCPDCPFSARQWPEVRAHMAQHSSLRPHQCSQCSFASKNKKDLRRHMLTHTKEKPFACHLCGQRFNRNGHLKFHIQRLHSPDGRKSGTPTARAPTQTPTQTIILNSDDETLATLHTALQSSHGVLGPERLQQALSQEHIIVAQEQTVTNQEEAAYIQEITTADGQTVQHLVTSDNQVQYIISQDGVQHLLPQEYVVVPEGHHIQVQEGQITHIQYEQGAPFLQESQIQYVPVSPGQQLVTQAQLEAAAHSAVTAVADAAMAQAQGLFGTDETVPEHIQQLQHQGIEYDVITLADD
- binding [8]: binds
- binding [9]: binds

B2: B42-NIF-1 (full-length), B42 activation domain fusion expressed from pJG4-5 in yeast (other, not shown: large carriers)
chain: MEENEVESSSDAAPGPGRPEEPSESGLGVGTSEAVSADSSDAAAAPGQAEADDSGVGQSSDRGSRSQEEVSESSSSADPLPNSYLPDSSSVSHGPVAGVTGGPPALVHSSALPDPNMLVSDCTASSSDLGSAIDKIIESTIGPDLIQNCITVTSAEDGGAETTRYLILQGPDDGAPMTSPMSSSTLAHSLAAIEALADGPTSTSTCLEAQGGPSSPVQLPPASGAEEPDLQSLEAMMEVVVVQQFKCKMCQYRSSTKATLLRHMRERHFRPVAAAAAAAGKKGRLRKWSTSTKSQEEEGPEEEDDDDIVDAGAIDDLEEDSDYNPAEDEPRGRQLRLQRPTPSTPRPRRRPGRPRKLPRLEISDLPDGVEGEPLVSSQSGQSPPEPQDPEAPSSSGPGHLVAMGKVSRTPVEAGVSQSDAENAAPSCPDEHDTLPRRRGRPSRRFLGKKYRKYYYKSPKPLLRPFLCRICGSRFLSHEDLRFHVNSHEAGDPQLFKCLQCSYRSRRWSSLKEHMFNHVGSKPYKCDECSYTSVYRKDVIRHAAVHSRDRKKRPDPTPKLSSFPCPVCGRVYPMQKRLTQHMKTHSTEKPHMCDKCGKSFKKRYTFKMHLLTHIQAVANRRFKCEFCEFVCEDKKALLNHQLSHVSDKPFKCSFCPYRTFREDFLLSHVAVKHTGAKPFACEYCHFSTRHKKNLRLHVRCRHASSFEEWGRRHPEEPPSRRRPFFSLQQIEELKQQHSAAPGPPPSSPGPPEIPPEATTFQSSEAPSLLCSDTLGGATIIYQQGAEESTAMATQTALDLLLNMSAQRELGGTALQVAVVKSEDVEAGLASPGGQPSPEGATPQVVTLHVAEPGGGAAAESQLGPPDLPQITLAPGPFGGTGYSVITAPPMEEGTSAPGTPYSEEPAGEAAQAVVVSDTLKEAGTHYIMATDGTQLHHIELTADGSISFPSPDALASGAKWPLLQCGGLPRDGPEPPSPAKTHCVGDSQSSASSPPATSKALGLAVPPSPPSAATAASKKFSCKICAEAFPGRAEMESHKRAHAGPGAFKCPDCPFSARQWPEVRAHMAQHSSLRPHQCSQCSFASKNKKDLRRHMLTHTKEKPFACHLCGQRFNRNGHLKFHIQRLHSPDGRKSGTPTARAPTQTPTQTIILNSDDETLATLHTALQSSHGVLGPERLQQALSQEHIIVAQEQTVTNQEEAAYIQEITTADGQTVQHLVTSDNQVQYIISQDGVQHLLPQEYVVVPEGHHIQVQEGQITHIQYEQGAPFLQESQIQYVPVSPGQQLVTQAQLEAAAHSAVTAVADAAMAQAQGLFGTDETVPEHIQQLQHQGIEYDVITLADD
notes: also called NIF-1 expressed as a B42-fusion
- binding [10]: binds
- binding [11]: binds
- binding [12]: binds

B6: B42-NIF-2 (human NIF-2 lacking the N-terminal 74 amino acids, B42 fusion) (protein, not shown: large carriers)
chain: SSADPLPNSYLPDSSSVSHGPVAGVTGGPPALVHSSALPDPNMLVSDCTASSSDLGSAIDKIIESTIGPDLIQNCITVTSAEDGGAETTRYLILQGPDDGAPMTSPMSSSPSSPGPPEIPPEATTFQSSEAPSLLCSDTLGGATIIYQQGAEESTAMATQTALDLLLNMSAQRELGGTALQVAVVKSEDVEAGLASPGGQPSPEGATPQVVTLHVAEPGGGAAAESQLGPPDLPQITLAPGPFGGTGYSVITAPPMEEGTSAPGTPYSEEPAGEAAQAVVVSDTLKEAGTHYIMATDGTQLHHIELTADGSISFPSPDALASGAKWPLLQCGGLPRDGPEPPSPAKTHCVGDSQSSASSPPATSKALGLAVPPSPPSAATAASKKFSCKICAEAFPGRAEMESHKRAHAGPGAFKCPDCPFSARQWPEVRAHMAQHSSLRPHQCSQCSFASKNKKDLRRHMLTHTKEKPFACHLCGQRFNRNGHLKFHIQRLHSPDGRKSGTPTARAPTQTPTQTIILNSDDETLATLHTALQSSHGVLGPERLQQALSQEHIIVAQEQTVTNQEEAAYIQEITTADGQTVQHLVTSDNQVQYIISQDGVQHLLPQEYVVVPEGHHIQVQEGQITHIQYEQGAPFLQESQIQYVPVSPGQQLVTQAQLEAAAHSAVTAVADAAMAQAQGLFGTDETVPEHIQQLQHQGIEYDVITLADD
- binding [15]: binds
- binding [13]: binds

Continued, values first:

- binding [13]: binds
B3: Human NIF-1 amino acids 1007-1150 (FIG. 5, row g), B42 fusion (protein, not shown: large carriers)
chain: SPPSAATAASKKFSCKICAEAFPGRAEMESHKRAHAGPGAFKCPDCPFSARQWPEVRAHMAQHSSLRPHQCSQCSFASKNKKDLRRHMLTHTKEKPFACHLCGQRFNRNGHLKFHIQRLHSPDGRKSGTPTARAPTQTPTQTII

- binding [13]: binds
B4: Human NIF-1 amino acids 1043-1342 (FIG. 5, row f), B42 fusion (protein, not shown: large carriers)
chain: GPGAFKCPDCPFSARQWPEVRAHMAQHSSLRPHQCSQCSFASKNKKDLRRHMLTHTKEKPFACHLCGQRFNRNGHLKFHIQRLHSPDGRKSGTPTARAPTQTPTQTIILNSDDETLATLHTALQSSHGVLGPERLQQALSQEHIIVAQEQTVTNQEEAAYIQEITTADGQTVQHLVTSDNQVQYIISQDGVQHLLPQEYVVVPEGHHIQVQEGQITHIQYEQGAPFLQESQIQYVPVSPGQQLVTQAQLEAAAHSAVTAVADAAMAQAQGLFGTDETVPEHIQQLQHQGIEYDVITLADD

- binding [13]: binds
- binding [14]: binds
B5: Rat NIF (partial clone isolated from the GH4C1 pJG4-5 cDNA library, B42 fusion) (protein, not shown: large carriers)
chain: MFNHVGSKPYKCDECSYTSVYRKDVIRHAAVHSQDRKKRPDPTPKLSSFPCPVCGRVYPMQKRLTQHMKTHSTEKPHMCDKCGKSFKKRYTFKMHLLTHIQAVANRRFKCEFCEFVCEDKKALLNHQLSHVSDKPFKCSFCPYRTFREDFLLSHVAVKHTGAKPFACEYCHFSTRHKKNLRLHVRCRHANSFEEWGRRHPEEPPSRRRPIFSLQQIEKLKQQHSAAPGPPLSSAGPEAPQEPAPFQSPETPPLLCPDALGGATIIYQQGAEESTAMATQTALDLLLNMSAQRELGATALQVAVVKSEDVEAELTSTARQPSSEDTTPRVVTLHVAESGSSVAAESQLGPSDLQQIALPPGPFSGASYSVITAPPVEGRASASGPPYREEPPGEAAQAVVVNDTLKEAGTHYIMAADGTQLHHIELTADGSISFPSPDTLAPGTKWPLLQCGGPPRDGPEVLSPTKTHHTGGSQGSSTPPPATSHALGLLVPHSPPSAAASSTKKFSCKVCSEAFPSRAEMESHKRAHAGPAAFKCPDCPFSARQWPEVRAHMAQHSSLRPHQCNQCSFASKNKKDLRRHMLTHTNEKPFSCHVCGQRFNRNGHLKFHIQRLHSIDGRKTGTSTARAPAQTIILNSEEETLATLHTAFQSNHGTLGTERLQQALSQEHIIVAQEQTVANQEEATYIQEITADGQTVQHLVTSDNQVQYIISQDGVQHLLPQEYVVVPDGHHIQVQEGQITHIQYEQGTPFLQESQIQYVPVSPSQQLVTQAQLEAAAHSAVTVADAAMAQAQGLFGTEEAVPEHIQQLQHQGIEYDVITLSDD
